To fix the notation:
B1: 40633p1.2.E11 (scFv, V domains shown)
VH: EVQLLESGGGLVQPGGSLRLSCAASGFSFSNYDMSWVRQAPGKGLEWVAGIRSGSRTYYADSVKGRFTISRDNSKNTLYLQMNSLRAEDTATYYCGRYFNMDVWGQGTTVTVSS
VL: QSVLTQPPSASGTPGQRVTISCSGSTFNIGTNLVHWYQQLPGTAPKLLIYLTDRRPPGVPDRFSGSKSGTSASLAISGLQSEDEANYYCATWDDSLNSFLFGGGTKLTVL
B2: 40633p1.1.G10 (scFv, V domains shown)
VH: EVQLLESGGGLVEPGGSLRLSCAASGFSFSSYGMHWVRQAPGKGLDWVAVINGEGSGTYYADSVKGRFTISRDNSKSTLYLQMNSLRAEDTAVYYCTKYYYNYAMDVWGQGTTVTVSS
VL: QSVLTQPPSASGTPGQRVTISCSGSRTDIGTTSVNWYQQLPGTAPKLLIYQSHQRPSGVPDRFSGSKSGTSASLAISGLQSEDEADYYCASWDASQNTWVFGGGTKLTVL
B3: 40633p1.2.A8 (scFv, V domains shown)
VH: B2 VH with V12L, E13Q, D46E, V50A, G53S, E54D, G57R, T58I, S77N, N102H
VL: B2 VL with T27S, T31A, S33T, Q54L, Q96L
B4: 40633p1.2.G9 (scFv, V domains shown)
VH: EVQLLESGGGLLQPGGSLRLSCAASGFSFSSYGMHWVRQAPGKGLEWVAAINSDGSRIYYADSVEGRFTISRDNSKNTLYLQMNSLRAEDTAVYYCTKYYYHYAMDVWGQGTTVTVSS
VL: B2 VL with T27S, T31A, S33T, Q54L, Q96L
B5: 40633p1.1.H11 (scFv, V domains shown)
VH: EVQLLESGGGLVQPGGSLRLSCAASGFTFSSYPMTWVRQAPGKGLEWVADINSGGGTTLYADAVKGRFTISRDNSKNIVYLQMNSLRGEDTAVYYCAKHLDYYSYGMDVWGQGTTVTVSS
VL: QSVLTQPPSASGTPGQRVTISCSGVTSKIGSKYVHWYQQLPGTAPKLLIYRNFERPSGVPDRFSGSTSGTSASLAISGLQSEDEADYYCATWEGALNGWVFGGGTKLTVL
B6: 40633p1.2.D1 (scFv, V domains shown)
VH: EVQLLESGGGLVQPGGSLRLSCAASGFTFDVYGMSWVRQAPGKGLEWVSAINWNGGSTYYADSVKGRFTISRDNSENTLYLQMNSLRAEDTAVYYCAKEKWKHFIYYGMDVWGQGTTVTVSS
VL: QSVLTQPASASGTPGQTVSISCSGSSSNIDSNTANWYQQLPGTAPKLLIYSNNQRPSGVPDRFSGSKSDTSASLAISGLQSEDEGDYYCSAWDDNLNGWLFGGGTKLTVL
B7: 40633p1.1.D11 (scFv, V domains shown)
VH: EVQLLESGGGLVQPGGSLRLSCAASGFTFRSYAMSWVRQAPGKGLEWVAYIGSSGGTTYYADSVKGRFTISRDNSKNTLYLQMNSLRAEDTAVYYCVKESYYYMDVWGQGTTVTVSS
VL: QSVLTQPPSASGTPGQRVTISCSATISNIDINRVSWYQQLPGTAPKLLIFNSQRPSGVPDRFSGSKSGTSASLAISGLQSEDEADYYCATWDDSLNSWVFGGGTKLTVL
B8: 40633p1.1.G7 (scFv, V domains shown)
VH: EVQLLESGGGLVQPGGSLRLSCAASGFTFSGSAMNWVRQAPGKGLEWVSAINSGGTTIYYADSVKGRFTVSRDNSKNTLYLQMNSLRAEDTAVYYCVKLDFYYGMDVWGEGTTVTVSS
VL: QSVVTQPPSASGTPGQRVTVSCSGSSSNVGSKYVQWYQQLPGTAPKLLIYATDRRPSGVPDRFSGSKSGTSASLAISGLQSEDEADYYCASWDDSLNAWVFGGGTKLTVL
B9: 40633p1.1.G11 (scFv, V domains shown)
VH: EVQLLESGGGLVQPGGSLRLSCAASGFTVSYYGMSWVRQAPGKGLEWVSVIKQDGSEEYYADSVKGRFTISRDNSKNTLYLQMNSPRAEDTAVYYCARHWNDYSNGMNVWGQGTTVTVSS
VL: QSVLTQPPSASGTPGQRVTISCSGSTSNVGDRYVYWYQQLPGTAPKLLIYLDDQRPSGVPDRFSGSKSGTSASLAISGLQSEDEADYYCASWDASLNGWVFGGGTKLTVL
B10: 40633p1.2.C3 (scFv, V domains shown)
VH: B9 VH with V50A, E58K, P86L, G106A, G111E
VL: B9 VL with T26N, D31G, R32N, Y35S, L51R, D52N, D53S, D86V
B11: 40633p1.2.D11 (scFv, V domains shown)
VH: EVQLESGGGLVQPGGSLRLSCAASGFTVSYYGMSWVRQAPGKGLEWVSAIKQDGSEKYYADSVKGRFTISRDNSKNTLYLQMNSLRAEDTAVYYCARHWNDYSNAMNVWGQGTTVTVSS
VL: B9 VL with V29I, G30A, D31I, R32D, Y33F, Y35N, L51T, D52I, D86V, G103R
B12: 40633p1.1.G5 (scFv, V domains shown)
VH: B9 VH with T28I, S30N, A40P, V50A, E58K, N77T, P86L
VL: QSVLTQPPSASGTPGQRVTISCSGSWSNIGSYNSHWYQKLPGTAPKLLIYTTDRRPSGVPDRFSGSKSGTSASLAISGLQSEDEADYYCGTWDDSLNVWVFGGGTKLTVL
B13: 40633p1.2.E1 (scFv, V domains shown)
VH: B9 VH with G9R, P86L
VL: B9 VL
B14: 40633p1.2.A10 (scFv, V domains shown)
VH: B9 VH with P86L
VL: B9 VL
B15: 40633p1.2.C11 (scFv, V domains shown)
VH: EVQLLESGGGLVQPGGSLRLSCAASGFTFSSYWMSWVRQAPGKGLEWVAGINRNGGSTYYADSVKGRFTISRDNSENTLYLQVNSLRAEDTAVYYCARWNDYDIMDVWGQGTTVTVSS
VL: QSVLTQPSSASGTPGQRVTISCSGSSSNVGRRAVNWYQQLPGTAPKLLISNSQRPSGVPDRFSGSKSGTSASLAISGLQSEDEADYYCATWDASLNSWVFGGGTKLTVL
B16: 40633p1.1.F2 (scFv, V domains shown)
VH: EVQLLESGGGLVQPGGSLRLSCVASGLTFNGFAMTWVRQAPGKGLEWVSGISWNSGSIYYADSVKGRFTISRDNSKNTVYLQMSSLRAEDTAIYYCAKNWNDYYNSMDVWGQGTTVTVSS
VL: QSVLTQPPSASGTPGQRVTISCSGSRSNIGTKYVYWYQQFPGTAPKLLIYTTDRRPSGVPDRFSGSKSGTSASLAISGLQSEDEADYYCSAWDDRLNAWVFGGGTKLTVL

Residue numbers refer to the chain shown, from its start. These are yes or no findings as the source states them, for the method shown. Binding calls can cover weak binding; strength is not graded here.

This experiment addresses His-tagged cynomolgus monkey B7-H3 (cynomolgus monkey). The experiment is described as follows: ELISA, coated His-tagged antigen.
Take B1: the binding entry is given as “binds”.
Turning to B2, the binding entry was “binds”.
The same measure for B3: “binds”; for B4: “binds”.
Next, B5: “binds”; B6: “binds”; B7: “binds”.
Take B8: the binding result is listed as “binds”.
For B9, the binding entry is listed as “binds”.
For B10, the binding entry is on record as “binds”.
In the case of B11, the binding entry is recorded as “binds”.
Next, B12: “binds”; B13: “binds”; B14: “binds”.
Turning to B15, the binding entry is given as “no binding (tested: 1 ug/ml)”.
Consider B16, for which the binding entry is listed as “binds”.

The values are drawn from patent US20260008852A1.
